Source: PubChem BioAssay AID1259308 (NCATS, 2017)

- Test: 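Knock-downs that increase output of a recombinant reporter protein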 (primary screen)
- Cell system: human HEK293 embryonic kidney cells stably expressing firefly luciferase (HEK-CMV-Luc2-Hygro)
- Reagents: single siRNA against human genes, 0.8 pmol siRNA per well
- Duration: 72 h
- Measurement: 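Reporter luminescence and viable-cell signal on separate replicate plates, given as percent of non-targeting control and median/MAD z-scores, plus per-cell luciferase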
- Scale: total luciferase, z-score and total luciferase, % of control: higher = more reporter protein produced
- Call rule: 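Active when the median/MAD z-score for overall luciferase is greater than 3; a gene was taken forward for validation with new siRNAs if at least two of its three siRNAs passed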
- Meaning of the calls: active = raised luciferase; inactive = no rise
Shown is a random part of about 59,000 reagents. Of all reagents, about 1,510 (2.6%) got an active call. 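Calls use total luciferase alone and ignore viability, so some active siRNAs may act by altering cell number.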 A number with no mark means an inactive call. The numbers tell different reagents against one gene apart. Not all columns of the deposit are shown. Reagent sequences are not shown.

Depletion of TLL1 #1 gave: total luciferase, z-score -0.0381; total luciferase, % of control 81.1.
Against TLL1 #2, the values are total luciferase, z-score 2.58; total luciferase, % of control 133.
Against TLL1 #3, the values are total luciferase, z-score -0.44; total luciferase, % of control 73.1.
Against SETD9 #1, the entry reads total luciferase, z-score 0.294; total luciferase, % of control 87.7.
SETD9 #2 gave total luciferase, z-score -0.184; total luciferase, % of control 78.2.
Against SETD9 #3, the entry reads total luciferase, z-score -0.759; total luciferase, % of control 66.8.
Knock-down of AFMID #1 gave: total luciferase, z-score -0.318; total luciferase, % of control 75.6.
Depletion of AFMID #2 resulted in: total luciferase, z-score -0.443; total luciferase, % of control 73.1.
After knock-down of AFMID #3 the results were total luciferase, z-score 0.603; total luciferase, % of control 93.9.

Not a retest: 2 of the entries above.
SETD9 #3 — total luciferase, z-score: -0.759; total luciferase, % of control: 66.8
AFMID #1 — total luciferase, z-score: -0.318; total luciferase, % of control: 75.6

The listing continues.
Knock-down of THPO #1 gave: total luciferase, z-score -0.146; total luciferase, % of control 79.
THPO #2 scored total luciferase, z-score -2.69; total luciferase, % of control 28.5.
Silencing of THPO #3 resulted in: total luciferase, z-score -0.922; total luciferase, % of control 63.6.
Against GALNT3 #1, the values are total luciferase, z-score -0.539; total luciferase, % of control 71.2.
With knock-down of GALNT3 #2, the record shows total luciferase, z-score -1.97; total luciferase, % of control 42.8.
Silencing of GALNT3 #3 came out at: total luciferase, z-score -0.489; total luciferase, % of control 72.2.
Silencing of DPF3 #1 gave: total luciferase, z-score -0.351; total luciferase, % of control 74.9.
DPF3 #2 showed total luciferase, z-score -0.471; total luciferase, % of control 72.5.
DPF3 #3 showed total luciferase, z-score -0.34; total luciferase, % of control 75.1.
With knock-down of IFITM1 #1 the results were total luciferase, z-score 1.38; total luciferase, % of control 109.
With knock-down of IFITM1 #2, the screen gave total luciferase, z-score -0.377; total luciferase, % of control 74.4.
Against IFITM1 #3 the deposit lists total luciferase, z-score -1.08; total luciferase, % of control 60.5.
